Values of other authors as cited in PMC6412891, “Synthesis and Biological Evaluation of Novel Thiazolyl-Coumarin Derivatives as Potent Histone Deacetylase Inhibitors with Antifibrotic Activity” (Molecules, 2019).

Tested on: CFs
Set-up: method as in PMID 24631770, PMID 24374140
Settings: cited from earlier work

Which “concentration shown to inhibit the proliferation of CFs” value does the source give for `O=C(CCCCCCC(=O)Nc1ccccc1)NO` [SAHA, suberoylanilide hydroxamic acid] here?
The value was 10 µM.
